Test results taken from the supplement of paper PMC10849652.
The other results are listed elsewhere or left out.

Sequences of proteins named here, by UniProt entry; tags and fusion partners are left off. A change or cut given only in a name is not applied to a line headed by its entry.
UniProt P04179: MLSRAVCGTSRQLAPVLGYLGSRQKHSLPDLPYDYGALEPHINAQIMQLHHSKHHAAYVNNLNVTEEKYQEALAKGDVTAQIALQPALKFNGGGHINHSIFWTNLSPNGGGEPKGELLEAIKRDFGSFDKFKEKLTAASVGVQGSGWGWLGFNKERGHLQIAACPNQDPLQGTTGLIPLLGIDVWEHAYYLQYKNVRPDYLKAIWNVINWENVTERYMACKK
UniProt O60271: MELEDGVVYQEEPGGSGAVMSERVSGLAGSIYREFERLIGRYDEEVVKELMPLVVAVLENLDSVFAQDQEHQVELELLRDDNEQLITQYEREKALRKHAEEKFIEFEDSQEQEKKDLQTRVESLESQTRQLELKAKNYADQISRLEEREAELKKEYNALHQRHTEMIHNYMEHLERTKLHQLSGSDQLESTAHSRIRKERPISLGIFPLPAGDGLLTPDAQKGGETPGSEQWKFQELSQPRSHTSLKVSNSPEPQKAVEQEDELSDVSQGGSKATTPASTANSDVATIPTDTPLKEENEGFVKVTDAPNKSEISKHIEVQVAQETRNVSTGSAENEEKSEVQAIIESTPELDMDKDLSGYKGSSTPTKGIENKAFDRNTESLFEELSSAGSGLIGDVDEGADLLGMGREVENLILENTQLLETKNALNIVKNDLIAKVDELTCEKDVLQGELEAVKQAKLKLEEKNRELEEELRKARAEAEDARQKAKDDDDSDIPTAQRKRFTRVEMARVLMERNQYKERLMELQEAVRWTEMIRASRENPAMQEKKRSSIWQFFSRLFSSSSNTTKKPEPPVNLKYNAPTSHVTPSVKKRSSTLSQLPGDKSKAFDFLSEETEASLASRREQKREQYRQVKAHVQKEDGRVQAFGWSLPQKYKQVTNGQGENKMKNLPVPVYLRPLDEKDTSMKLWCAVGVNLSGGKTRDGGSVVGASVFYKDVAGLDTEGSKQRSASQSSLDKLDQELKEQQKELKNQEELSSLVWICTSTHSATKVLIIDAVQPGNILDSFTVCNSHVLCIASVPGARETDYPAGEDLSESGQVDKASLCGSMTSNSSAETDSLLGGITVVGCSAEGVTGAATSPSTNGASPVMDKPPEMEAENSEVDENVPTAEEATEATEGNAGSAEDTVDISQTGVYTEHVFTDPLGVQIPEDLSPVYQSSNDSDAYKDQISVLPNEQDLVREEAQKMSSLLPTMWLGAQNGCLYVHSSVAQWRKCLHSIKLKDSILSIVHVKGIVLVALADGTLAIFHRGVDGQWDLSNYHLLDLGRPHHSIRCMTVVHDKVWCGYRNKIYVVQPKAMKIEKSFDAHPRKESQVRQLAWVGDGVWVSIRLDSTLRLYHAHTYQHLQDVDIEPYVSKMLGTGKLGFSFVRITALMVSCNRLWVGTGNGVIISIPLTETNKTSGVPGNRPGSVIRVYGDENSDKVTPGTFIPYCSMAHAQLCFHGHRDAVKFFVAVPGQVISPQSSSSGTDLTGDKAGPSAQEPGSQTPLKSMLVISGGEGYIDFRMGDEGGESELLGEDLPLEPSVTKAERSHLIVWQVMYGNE
UniProt P09661: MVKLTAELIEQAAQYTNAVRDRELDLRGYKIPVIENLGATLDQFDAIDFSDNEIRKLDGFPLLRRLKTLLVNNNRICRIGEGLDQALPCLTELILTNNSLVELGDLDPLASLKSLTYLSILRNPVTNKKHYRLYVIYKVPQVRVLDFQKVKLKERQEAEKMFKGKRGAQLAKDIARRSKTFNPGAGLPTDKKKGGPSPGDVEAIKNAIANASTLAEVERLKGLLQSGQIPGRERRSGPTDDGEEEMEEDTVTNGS
UniProt Q13596, whole entry, looked up: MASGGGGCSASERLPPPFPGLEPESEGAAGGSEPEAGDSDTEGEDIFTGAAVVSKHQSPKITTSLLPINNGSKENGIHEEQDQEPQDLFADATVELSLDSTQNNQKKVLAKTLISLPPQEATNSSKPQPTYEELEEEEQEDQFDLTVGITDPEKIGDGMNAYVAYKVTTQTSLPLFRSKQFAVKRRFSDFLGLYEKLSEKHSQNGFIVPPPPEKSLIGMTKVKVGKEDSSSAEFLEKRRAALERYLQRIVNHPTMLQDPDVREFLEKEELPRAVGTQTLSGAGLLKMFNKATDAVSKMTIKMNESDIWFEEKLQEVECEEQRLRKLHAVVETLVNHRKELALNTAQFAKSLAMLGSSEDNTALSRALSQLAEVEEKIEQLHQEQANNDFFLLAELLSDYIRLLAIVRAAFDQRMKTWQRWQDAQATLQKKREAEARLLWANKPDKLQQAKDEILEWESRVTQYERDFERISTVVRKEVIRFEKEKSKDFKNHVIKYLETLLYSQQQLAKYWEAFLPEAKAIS
UniProt O60641: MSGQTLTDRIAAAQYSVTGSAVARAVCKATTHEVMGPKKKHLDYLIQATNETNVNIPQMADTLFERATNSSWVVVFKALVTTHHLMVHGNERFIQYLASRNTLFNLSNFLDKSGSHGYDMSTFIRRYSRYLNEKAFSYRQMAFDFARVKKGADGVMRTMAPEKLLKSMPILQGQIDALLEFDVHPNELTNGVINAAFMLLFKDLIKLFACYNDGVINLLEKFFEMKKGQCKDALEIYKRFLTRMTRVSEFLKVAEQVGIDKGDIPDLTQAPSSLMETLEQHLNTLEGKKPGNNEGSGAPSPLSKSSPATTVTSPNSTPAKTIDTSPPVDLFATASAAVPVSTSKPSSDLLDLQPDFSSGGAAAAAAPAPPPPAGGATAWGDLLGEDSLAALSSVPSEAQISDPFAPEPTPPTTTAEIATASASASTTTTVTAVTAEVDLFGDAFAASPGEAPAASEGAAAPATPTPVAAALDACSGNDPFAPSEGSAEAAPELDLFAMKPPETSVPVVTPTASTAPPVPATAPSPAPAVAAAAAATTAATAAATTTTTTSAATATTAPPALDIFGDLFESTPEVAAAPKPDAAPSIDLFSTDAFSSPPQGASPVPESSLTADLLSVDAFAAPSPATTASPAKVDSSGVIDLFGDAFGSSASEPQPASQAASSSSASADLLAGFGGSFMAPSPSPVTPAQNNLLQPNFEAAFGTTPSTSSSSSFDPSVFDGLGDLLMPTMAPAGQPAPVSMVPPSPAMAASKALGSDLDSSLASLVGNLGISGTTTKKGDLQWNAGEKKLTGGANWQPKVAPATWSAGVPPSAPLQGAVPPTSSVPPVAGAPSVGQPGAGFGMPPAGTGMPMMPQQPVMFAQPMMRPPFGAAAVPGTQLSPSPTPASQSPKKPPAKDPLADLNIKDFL
UniProt Q7KZF4: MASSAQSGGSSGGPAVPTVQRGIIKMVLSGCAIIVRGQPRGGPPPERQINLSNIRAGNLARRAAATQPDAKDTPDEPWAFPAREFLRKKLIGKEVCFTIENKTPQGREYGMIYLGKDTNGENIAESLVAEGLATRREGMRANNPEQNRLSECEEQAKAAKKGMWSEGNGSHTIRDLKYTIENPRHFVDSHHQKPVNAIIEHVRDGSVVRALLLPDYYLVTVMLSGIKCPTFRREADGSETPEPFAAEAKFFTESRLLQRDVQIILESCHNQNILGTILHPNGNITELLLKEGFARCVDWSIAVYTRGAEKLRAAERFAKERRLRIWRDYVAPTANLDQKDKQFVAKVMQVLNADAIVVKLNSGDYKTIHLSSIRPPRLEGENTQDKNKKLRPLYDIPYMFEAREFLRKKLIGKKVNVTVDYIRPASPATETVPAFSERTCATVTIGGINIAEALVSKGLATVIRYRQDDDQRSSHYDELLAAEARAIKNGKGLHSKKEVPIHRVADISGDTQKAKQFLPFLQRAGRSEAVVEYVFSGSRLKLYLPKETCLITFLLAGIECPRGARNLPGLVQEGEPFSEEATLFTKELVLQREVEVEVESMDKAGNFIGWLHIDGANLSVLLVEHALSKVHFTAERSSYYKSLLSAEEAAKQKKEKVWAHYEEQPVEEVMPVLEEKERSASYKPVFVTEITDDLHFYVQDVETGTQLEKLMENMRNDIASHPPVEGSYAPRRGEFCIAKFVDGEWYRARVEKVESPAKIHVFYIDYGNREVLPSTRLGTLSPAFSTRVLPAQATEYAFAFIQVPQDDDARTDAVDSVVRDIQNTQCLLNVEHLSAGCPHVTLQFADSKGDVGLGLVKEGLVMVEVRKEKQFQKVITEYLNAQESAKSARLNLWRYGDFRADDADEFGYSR
UniProt P62306, whole entry, looked up: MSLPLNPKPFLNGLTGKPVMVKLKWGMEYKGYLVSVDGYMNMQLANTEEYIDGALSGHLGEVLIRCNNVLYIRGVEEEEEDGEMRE
UniProt Q15036: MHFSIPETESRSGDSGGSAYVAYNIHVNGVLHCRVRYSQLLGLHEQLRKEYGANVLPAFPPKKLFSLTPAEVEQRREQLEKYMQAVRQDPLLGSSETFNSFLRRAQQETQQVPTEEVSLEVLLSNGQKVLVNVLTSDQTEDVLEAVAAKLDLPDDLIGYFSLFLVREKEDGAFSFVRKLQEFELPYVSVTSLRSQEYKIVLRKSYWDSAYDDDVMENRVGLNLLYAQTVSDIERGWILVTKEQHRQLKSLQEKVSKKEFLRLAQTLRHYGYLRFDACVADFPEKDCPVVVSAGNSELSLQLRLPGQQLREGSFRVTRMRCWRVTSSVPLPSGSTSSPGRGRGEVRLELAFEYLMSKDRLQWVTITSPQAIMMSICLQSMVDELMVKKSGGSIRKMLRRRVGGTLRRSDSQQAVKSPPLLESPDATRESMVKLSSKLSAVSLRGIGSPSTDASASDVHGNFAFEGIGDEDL
UniProt Q13425: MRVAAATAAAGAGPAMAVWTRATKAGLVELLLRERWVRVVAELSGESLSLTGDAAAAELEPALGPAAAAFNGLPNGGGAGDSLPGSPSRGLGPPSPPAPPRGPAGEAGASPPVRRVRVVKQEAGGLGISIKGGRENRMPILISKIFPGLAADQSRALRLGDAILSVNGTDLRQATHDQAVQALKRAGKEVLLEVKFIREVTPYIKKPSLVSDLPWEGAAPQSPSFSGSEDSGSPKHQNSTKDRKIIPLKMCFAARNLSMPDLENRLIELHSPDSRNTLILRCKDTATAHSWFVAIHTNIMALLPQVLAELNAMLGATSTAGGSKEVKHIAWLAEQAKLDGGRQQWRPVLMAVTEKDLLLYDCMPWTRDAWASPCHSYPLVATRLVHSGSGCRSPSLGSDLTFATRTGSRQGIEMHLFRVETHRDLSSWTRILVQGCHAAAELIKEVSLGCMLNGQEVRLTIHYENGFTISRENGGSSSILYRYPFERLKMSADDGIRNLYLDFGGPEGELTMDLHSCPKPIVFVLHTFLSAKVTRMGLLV
UniProt Q92925, whole entry, looked up: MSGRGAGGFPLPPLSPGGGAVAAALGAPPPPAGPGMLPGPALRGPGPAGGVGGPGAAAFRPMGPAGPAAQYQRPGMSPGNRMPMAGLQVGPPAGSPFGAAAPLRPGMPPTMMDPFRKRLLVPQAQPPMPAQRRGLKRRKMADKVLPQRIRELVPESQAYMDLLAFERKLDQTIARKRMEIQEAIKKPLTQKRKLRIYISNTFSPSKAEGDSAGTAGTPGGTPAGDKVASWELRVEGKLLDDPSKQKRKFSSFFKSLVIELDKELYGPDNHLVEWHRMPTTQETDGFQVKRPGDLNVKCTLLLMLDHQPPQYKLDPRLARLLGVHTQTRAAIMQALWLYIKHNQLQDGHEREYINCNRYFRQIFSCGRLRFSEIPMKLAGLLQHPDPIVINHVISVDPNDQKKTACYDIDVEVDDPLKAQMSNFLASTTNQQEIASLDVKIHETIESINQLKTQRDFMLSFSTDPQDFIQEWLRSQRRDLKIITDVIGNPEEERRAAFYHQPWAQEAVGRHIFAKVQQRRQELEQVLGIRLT
UniProt O14508, whole entry, looked up: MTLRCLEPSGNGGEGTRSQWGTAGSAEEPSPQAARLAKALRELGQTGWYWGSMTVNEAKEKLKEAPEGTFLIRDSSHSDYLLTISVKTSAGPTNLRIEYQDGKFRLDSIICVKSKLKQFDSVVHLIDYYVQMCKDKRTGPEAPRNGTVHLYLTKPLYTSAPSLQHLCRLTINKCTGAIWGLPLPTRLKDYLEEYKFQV
UniProt P62318, whole entry, looked up: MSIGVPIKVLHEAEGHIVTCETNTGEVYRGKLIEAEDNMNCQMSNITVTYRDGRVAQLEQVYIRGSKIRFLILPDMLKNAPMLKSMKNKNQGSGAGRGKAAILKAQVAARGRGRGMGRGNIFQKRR
UniProt Q00796: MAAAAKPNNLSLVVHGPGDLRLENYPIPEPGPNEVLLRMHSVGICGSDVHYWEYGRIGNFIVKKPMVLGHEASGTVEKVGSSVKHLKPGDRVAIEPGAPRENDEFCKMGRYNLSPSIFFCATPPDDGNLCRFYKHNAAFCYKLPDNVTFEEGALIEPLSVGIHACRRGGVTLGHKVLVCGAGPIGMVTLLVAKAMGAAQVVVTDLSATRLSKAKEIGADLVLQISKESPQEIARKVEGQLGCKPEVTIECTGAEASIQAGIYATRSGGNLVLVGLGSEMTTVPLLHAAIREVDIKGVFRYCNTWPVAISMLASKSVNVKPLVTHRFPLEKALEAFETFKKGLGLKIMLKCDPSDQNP
UniProt Q96KF7: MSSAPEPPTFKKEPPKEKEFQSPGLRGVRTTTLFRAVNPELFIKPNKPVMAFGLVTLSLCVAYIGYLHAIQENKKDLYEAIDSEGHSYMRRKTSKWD

How the values were obtained:
Test in all cases: log2 fold change, soluble protein after heating vs DMSO (PISA); higher = thermal stabilisation; K562 lysate, 10 uM; active = over 0.2 and 3.5 SD of the protein, either way, in both replicates (recomputed)
vemurafenib = compound: CCCS(=O)(=O)Nc1ccc(F)c(C(=O)c2c[nH]c3ncc(-c4ccc(Cl)cc4)cc23)c1F [vemurafenib]
Method in brief: (§1)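 The values are log-two fold changes in thermal stability compared with solvent controls and come from duplicates. They were obtained by TMTpro 16plex LC-MS/MS, with channel sums equalised, on the supernatant after 21,000xg for 90 min. That supernatant came from crude K562 extract at 1 mg/mL protein treated with 10 μM compound for 30 min, heated for 3 min across 48°C-58°C, pooled and brought to 0.5% NP-40 at 4°C.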

[1] = compound: CCCS(=O)(=O)Nc1ccc(F)c(C(=O)c2c[nH]c3ncc(Cl)cc23)c1F
Method in brief: as §1

barasertib = compound: CCN(CCCOc1ccc2c(Nc3cc(CC(=O)Nc4cccc(F)c4)[nH]n3)ncnc2c1)CCOP(=O)(O)O [barasertib]
Method in brief: as §1

[2] = compound: CC[C@@H]1C(=O)N(C)c2cnc(Nc3ccc(C(=O)NC4CCN(C)CC4)cc3OC)nc2N1C1CCCC1
Method in brief: as §1

volasertib = compound: CC[C@@H]1C(=O)N(C)c2cnc(Nc3ccc(C(=O)N[C@H]4CC[C@H](N5CCN(CC6CC6)CC5)CC4)cc3OC)nc2N1C(C)C [volasertib]
Method in brief: as §1

[3] = compound: CCn1c(C(=O)N(C2CC2)C2CC2)cc2c3c(ncn3C)c(Nc3cc(C)n(C)n3)nc21
Method in brief: as §1

[4] = compound: CCn1cc(-c2ccnc3[nH]c(-c4cccc(CN(C)C)c4)cc23)c(-c2ccc(NC(=O)N(C)C)cc2)n1
Method in brief: as §1

[5] = compound: CN1CCC(CNc2ccc3ncc(-c4cccc(OC(F)(F)F)c4)n3n2)CC1
Method in brief: as §1

saracatinib = compound: CN1CCN(CCOc2cc(OC3CCOCC3)c3c(Nc4c(Cl)ccc5c4OCO5)ncnc3c2)CC1 [saracatinib]
Method in brief: as §1

sotrastaurin = compound: CN1CCN(c2nc(C3=C(c4c[nH]c5ccccc45)C(=O)NC3=O)c3ccccc3n2)CC1 [sotrastaurin]
Method in brief: as §1

Row | Target | log2 fold change (vemurafenib) | log2 fold change [1] | log2 fold change (barasertib) | log2 fold change [2] | log2 fold change (volasertib) | log2 fold change [3] | log2 fold change [4] | log2 fold change [5] | log2 fold change (saracatinib) | log2 fold change (sotrastaurin)
1 | SOD2 (UniProt P04179) | inactive: 0.039 | inactive: -0.018 | inactive: -0.013 | inactive: 0.037 | inactive: 0.045 | inactive: 0.007 | inactive: -0.085 | inactive: 0.061 | inactive: -0.031 | inactive: -0.028
2 | SPAG9 (UniProt O60271) | inactive: 0.008 | inactive: 0.016 | inactive: -0.016 | inactive: 0.049 | inactive: 0.027 | inactive: -0.016 | inactive: -0.043 | inactive: 0.047 | inactive: -0.029 | inactive: 0.001
3 | SNRPA1 (UniProt P09661) | inactive: 0.012 | inactive: 0.008 | inactive: -0.005 | inactive: 0.02 | inactive: 0.015 | inactive: -0.007 | inactive: -0.029 | inactive: 0.019 | inactive: 0.023 | inactive: -0.01
4 | SNX1 (UniProt Q13596) | inactive: 0.01 | inactive: 0.018 | inactive: 0.013 | inactive: -0.009 | inactive: -0.013 | inactive: -0.002 | inactive: -0.022 | inactive: -0.018 | inactive: 0.007 | inactive: -0.009
5 | SNX15 (UniProt Q9NRS6) | inactive: -0.013 | inactive: 0.036 | inactive: 0.012 | inactive: 0.007 | inactive: -0.003 | inactive: -0.02 | inactive: -0.051 | inactive: -0.03 | inactive: 0.009 | inactive: 0.026
6 | SNAP91 (UniProt O60641) | inactive: -0.143 | inactive: -0.039 | inactive: -0.032 | inactive: -0.001 | inactive: -0.062 | inactive: 0.056 | inactive: -0.078 | inactive: -0.014 | inactive: 0 | inactive: -0.027
7 | SND1 (UniProt Q7KZF4) | inactive: 0.024 | inactive: 0.017 | inactive: 0.021 | inactive: -0.099 | inactive: -0.084 | inactive: 0.037 | inactive: 0.058 | inactive: -0.078 | inactive: 0.014 | inactive: 0.031
8 | SNRPB isoform 3 (UniProt P14678) | inactive: -0.028 | inactive: 0.002 | inactive: 0.005 | inactive: -0.007 | inactive: 0.024 | inactive: 0.051 | inactive: -0.07 | inactive: 0.188 | inactive: -0.021 | inactive: 0.002
9 | SNRPF (UniProt P62306) | inactive: 0.023 | inactive: 0.002 | inactive: 0.045 | inactive: 0.067 | inactive: 0.032 | inactive: -0.051 | active: -0.35 | inactive: 0.24 | inactive: -0.044 | inactive: 0.042
10 | SNX17 (UniProt Q15036) | inactive: -0.015 | inactive: 0.083 | inactive: 0.007 | inactive: 0 | inactive: -0.008 | inactive: 0 | inactive: 0.01 | inactive: -0.061 | inactive: 0.014 | inactive: 0.004
11 | SNX11 (UniProt Q9Y5W9) | inactive: -0.02 | inactive: -0.004 | inactive: -0.036 | inactive: 0.042 | inactive: 0.056 | inactive: -0.055 | inactive: -0.081 | inactive: 0.074 | inactive: -0.023 | inactive: -0.003
12 | SMTN isoform 6 (UniProt P53814) | inactive: 0.021 | inactive: 0.061 | inactive: 0.018 | inactive: -0.007 | inactive: -0.078 | inactive: -0.026 | inactive: -0.036 | inactive: -0.006 | inactive: 0.013 | inactive: -0.051
13 | SNTB2 (UniProt Q13425) | inactive: 0.018 | inactive: 0.02 | inactive: -0.036 | inactive: 0.022 | inactive: -0.068 | inactive: -0.013 | inactive: 0.016 | inactive: 0.011 | inactive: 0.028 | inactive: 0.074
14 | SMARCD2 (UniProt Q92925) | inactive: -0.006 | inactive: 0.032 | inactive: -0.007 | inactive: -0.077 | inactive: -0.03 | inactive: 0.038 | inactive: -0.107 | inactive: 0.028 | inactive: 0.005 | inactive: 0.024
15 | SOCS2 (UniProt O14508) | inactive: 0.005 | inactive: -0.011 | inactive: 0 | inactive: 0.031 | inactive: 0.021 | inactive: -0.03 | inactive: -0.032 | inactive: 0.044 | inactive: -0.022 | inactive: 0.011
16 | SNX16 (UniProt P57768) | inactive: -0.119 | inactive: 0.041 | inactive: 0.027 | inactive: 0.071 | inactive: -0.033 | inactive: -0.033 | inactive: -0.051 | inactive: 0.102 | inactive: 0.051 | inactive: -0.018
17 | SNRPB2 (UniProt P08579) | inactive: -0.029 | inactive: 0.006 | inactive: 0.016 | inactive: 0.02 | inactive: 0.009 | inactive: -0.018 | inactive: 0.014 | inactive: 0 | inactive: 0.005 | inactive: 0.034
18 | SNRNP200 (UniProt O75643) | inactive: 0.012 | inactive: 0.005 | inactive: -0.009 | inactive: -0.007 | inactive: -0.015 | inactive: 0.004 | inactive: -0.057 | inactive: 0.001 | inactive: 0.006 | inactive: 0.025
19 | SNAPIN (UniProt O95295) | inactive: 0.044 | inactive: 0 | inactive: 0.104 | inactive: 0.036 | inactive: 0.035 | inactive: -0.012 | inactive: 0.015 | inactive: 0.036 | inactive: 0.007 | inactive: 0.003
20 | SNTA1 (UniProt Q13424) | inactive: 0.04 | inactive: 0.007 | inactive: 0.045 | inactive: -0.058 | inactive: -0.045 | inactive: 0.042 | inactive: -0.027 | inactive: 0.03 | inactive: 0.027 | inactive: 0.034
21 | SNRPD3 (UniProt P62318) | inactive: 0.022 | inactive: -0.012 | inactive: -0.006 | inactive: -0.049 | inactive: -0.004 | inactive: 0.052 | inactive: -0.254 | inactive: 0.135 | inactive: 0.046 | inactive: 0.024
22 | SORD (UniProt Q00796) | inactive: -0.006 | inactive: -0.008 | inactive: -0.015 | inactive: -0.021 | inactive: 0.03 | inactive: 0 | inactive: -0.025 | inactive: 0.067 | inactive: -0.032 | inactive: 0.005
23 | SMC1A (UniProt Q14683) | inactive: -0.008 | inactive: 0.015 | inactive: 0.013 | inactive: 0.004 | inactive: -0.008 | inactive: -0.009 | inactive: 0.064 | inactive: -0.001 | inactive: -0.001 | inactive: 0.002
24 | SNCA (UniProt P37840) | inactive: 0.042 | inactive: -0.039 | inactive: -0.027 | inactive: 0.08 | inactive: 0.072 | inactive: -0.022 | inactive: -0.109 | inactive: 0.287 | inactive: -0.035 | inactive: 0.068
25 | SNRPC (UniProt Q5TAL2) | inactive: -0.027 | inactive: 0.003 | inactive: -0.107 | inactive: 0.255 | inactive: 0.066 | inactive: -0.021 | inactive: -0.262 | inactive: 0.005 | inactive: 0.063 | inactive: -0.047
26 | SMIM8 (UniProt Q96KF7) | inactive: 0.037 | inactive: 0.048 | inactive: 0.088 | inactive: -0.003 | inactive: 0.012 | inactive: 0.057 | active: -0.382 | inactive: 0.177 | inactive: -0.071 | inactive: -0.027
27 | SNF8 (UniProt Q96H20) | inactive: -0.015 | inactive: -0.006 | inactive: 0.017 | inactive: -0.018 | inactive: -0.006 | inactive: -0.026 | inactive: 0.022 | inactive: -0.04 | inactive: 0.015 | inactive: 0.032
28 | SMU1 (UniProt Q2TAY7) | inactive: -0.016 | inactive: 0.04 | inactive: 0.025 | inactive: -0.055 | inactive: -0.024 | inactive: 0.015 | inactive: -0.005 | inactive: 0.014 | inactive: -0.034 | inactive: -0.036
29 | SORBS1 isoform 8 (UniProt Q9BX66) | inactive: -0.036 | inactive: 0.031 | inactive: -0.015 | inactive: 0.037 | inactive: -0.015 | inactive: 0.021 | inactive: 0.016 | inactive: -0.009 | inactive: 0.021 | inactive: -0.003
30 | SMS (UniProt P52788) | inactive: -0.023 | inactive: -0.01 | inactive: -0.034 | inactive: -0.016 | inactive: 0.022 | inactive: 0.029 | inactive: 0.057 | inactive: -0.005 | inactive: -0.004 | inactive: -0.006

Look-ups from the list.
Entry for SNX15 (UniProt Q9NRS6) under log2 fold change [4]: inactive: -0.051
Entry for SMS (UniProt P52788) under log2 fold change (volasertib): inactive: 0.022

Complete entries, quoted from the list. Values in the order: log2 fold change (vemurafenib)	log2 fold change [1]	log2 fold change (barasertib)	log2 fold change [2]	log2 fold change (volasertib)	log2 fold change [3]	log2 fold change [4]	log2 fold change [5]	log2 fold change (saracatinib)	log2 fold change (sotrastaurin)
SNRPD3 (UniProt P62318) reads inactive: 0.022	inactive: -0.012	inactive: -0.006	inactive: -0.049	inactive: -0.004	inactive: 0.052	inactive: -0.254	inactive: 0.135	inactive: 0.046	inactive: 0.024
SPAG9 (UniProt O60271) reads inactive: 0.008	inactive: 0.016	inactive: -0.016	inactive: 0.049	inactive: 0.027	inactive: -0.016	inactive: -0.043	inactive: 0.047	inactive: -0.029	inactive: 0.001
